No constants are given. Whether binding was seen depends on the method and setting. A result given as binding can be weak or reduced; the word gives no strength.
Biological target: purified α4β1 VLA4 integrin
Test: ELISA, Fab on plate-coated purified VLA4

Row | Binder | binding
1 | Humanized HP1/2 Fab V24A_T32V (Fab, V domains shown, Fab fragment; Constant parts are not specified) VH: EVQLVQSGAEVKKPGATVKISCKASGFNIKDVYMHWVQQAPGKGLEWMGRIDPASGDTKYDPKFQVRVTITADTSTDTAYMELSSLRSEDTAVYYCATGMWVSTGYALDFWGQGTLVTVSS VL: DIVMTQSPDSLAVSLGERATINCKASQSVTNDVAWYQQKPGQPPKLLIYYASNRYTGVPDRFSGSGSGTDFTLTISSLQAEDVAVYYCQQDYSSPYTFGQGTKVEIK | binds
2 | HP1/2 Fab, straight CDR graft (VH CDR graft paired with VL CDR graft) (Fab, V domains shown, Fab fragment; Constant parts are not specified) VH: EVQLVQSGAEVKKPGATVKISCKVSGFNIKDTYMHWVQQAPGKGLEWMGRIDPASGDTKYDPKFQVRVTITADTSTDTAYMELSSLRSEDTAVYYCATGMWVSTGYALDFWGQGTLVTVSS VL: DIVMTQSPDSLAVSLGERATINCKASQSVTNDVAWYQQKPGQPPKLLIYYASNRYTGVPDRFSGSGSGTDFTLTISSLQAEDVAVYYCQQDYSSPYTFGQGTKVEIK | binds
3 | Humanized HP1/2 Fab F27Y_T32V_M96L (VH SEQ ID NO: 25) (Fab, V domains shown, Fab fragment; Constant parts are not specified) VH: EVQLVQSGAEVKKPGATVKISCKVSGKNIKDVYMHWVQQAPGKGLEWMGRIDPASGDTKYDPKFQVRVTITADTSTDTAYMELSSLRSEDTAVYYCATGLWVSTGYALDFWGQGTLVTVSS VL: DIVMTQSPDSLAVSLGERATINCKASQSVTNDVAWYQQKPGQPPKLLIYYASNRYTGVPDRFSGSGSGTDFTLTISSLQAEDVAVYYCQQDYSSPYTFGQGTKVEIK | binds

Continued, values first:

Row | binding | Binder
4 | binds | Humanized HP1/2 Fab V24F_T32V (Fab, V domains shown, Fab fragment; Constant parts are not specified) VH: EVQLVQSGAEVKKPGATVKISCKFSGFNIKDVYMHWVQQAPGKGLEWMGRIDPASGDTKYDPKFQVRVTITADTSTDTAYMELSSLRSEDTAVYYCATGMWVSTGYALDFWGQGTLVTVSS VL: DIVMTQSPDSLAVSLGERATINCKASQSVTNDVAWYQQKPGQPPKLLIYYASNRYTGVPDRFSGSGSGTDFTLTISSLQAEDVAVYYCQQDYSSPYTFGQGTKVEIK
5 | binds | Humanized HP1/2 Fab V24S_F27Y_T32V (Fab, V domains shown, Fab fragment; Constant parts are not specified) VH: EVQLVQSGAEVKKPGATVKISCKSSGYNIKDVYMHWVQQAPGKGLEWMGRIDPASGDTKYDPKFQVRVTITADTSTDTAYMELSSLRSEDTAVYYCATGMWVSTGYALDFWGQGTLVTVSS VL: DIVMTQSPDSLAVSLGERATINCKASQSVTNDVAWYQQKPGQPPKLLIYYASNRYTGVPDRFSGSGSGTDFTLTISSLQAEDVAVYYCQQDYSSPYTFGQGTKVEIK
